This is one part of the list.

Results on 42 sequences are retold here after PMC7819943, “Rice protein-binding microarrays: a tool to detect cis-acting elements near promoter regions in rice”.

The target in this experiment is T1, OsSMF1 (Oryza sativa, UniProt Q6ZLB0 1-436).
T1 sequence: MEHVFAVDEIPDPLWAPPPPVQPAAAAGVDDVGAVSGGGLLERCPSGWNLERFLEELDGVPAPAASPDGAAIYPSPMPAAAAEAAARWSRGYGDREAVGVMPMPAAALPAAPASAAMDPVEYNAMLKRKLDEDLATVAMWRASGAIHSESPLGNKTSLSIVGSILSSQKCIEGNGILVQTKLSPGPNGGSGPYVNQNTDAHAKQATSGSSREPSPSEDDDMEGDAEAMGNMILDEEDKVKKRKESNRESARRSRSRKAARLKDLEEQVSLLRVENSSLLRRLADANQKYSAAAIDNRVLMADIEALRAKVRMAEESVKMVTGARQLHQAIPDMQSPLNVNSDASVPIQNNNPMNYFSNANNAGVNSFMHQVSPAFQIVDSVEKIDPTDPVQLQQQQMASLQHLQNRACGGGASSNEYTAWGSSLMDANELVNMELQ
Put plainly: protein-binding microarray (RPBM); PBS, 2% BSA, 51.3 ng/ul salmon testes DNA, 50 uM zinc acetate, 200 nM TF, 25 C, 1 h; high values mean tight binding. The conditions noted are these: protein: recombinant; tags: N-terminal polyhistidine and DsRed monomer fusion (pET32a); chain copies: 2; label: CyDye5-dUTP incorporated in the synthesized complementary strand; 3' TTTTT single-stranded linker to array surface; dsDNA, one strand shown. In a few lines:
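Using Ni–NTA, transcription factors fused N-terminally to polyhistidine and DsRed were purified after expression in E. coli BL21-CodonPlus. These were incubated at 200 nM with a blocked, double-stranded custom Agilent array for 1 h at 25 °C in a buffer containing 50 µM zinc acetate, and the array was washed. The binding signal is per-feature fluorescence intensity (arbitrary units) on an Axon 4000B scanner.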
“ATTGACTTTGTTACATCATTGTAGCAATATGTCGACAGGGCGGAGTCACCTAGTGCAG”: the binding signal was 3620 fluorescence intensity (a.u.).

In the case of “ATGAGCACAGGGAGCTCAGATCCGATCACTAGAGTAGATGCGGAGTCACCTAGTGCAG”, the binding signal was 3430 fluorescence intensity (a.u.). Take “TTTTCTCACGTGGAAACCACCGTTCGCTTCGTTAACCTCCCGGAGTCACCTAGTGCAG”: the binding signal was 4970 fluorescence intensity (a.u.).

Turning to “CACATCGAACGGTCCAAGAACAACCACATCACCAATGTGCCGGAGTCACCTAGTGCAG”, the binding signal was 3710 fluorescence intensity (a.u.). In the case of “CCGCTTCGTTCCACGCCGCCGCGCCTTCCTCCCTCCTCCGCGGAGTCACCTAGTGCAG”, the binding signal was 3250 fluorescence intensity (a.u.). Under “CGCCGCTCCTCCTCATCATCCTGCCACCGTGGTGAAGCGGCGGAGTCACCTAGTGCAG” stands 4080 fluorescence intensity (a.u.); under “GAAGCAGACAGGAATAGCTGCCATCCTGTCATAACTTGTACGGAGTCACCTAGTGCAG”, 3250 fluorescence intensity (a.u.).

As for “TGGCCAGGGCCCAGGTGGGAGGCCGTGACGGCGGTAGCAGCGGAGTCACCTAGTGCAG”, the binding signal is 3480 fluorescence intensity (a.u.). As to “CTCCGCCGCTGGCCGCCTTGCCTGCTTGAGAGGAGGAGAGCGGAGTCACCTAGTGCAG”, the binding signal is 26800 fluorescence intensity (a.u.).

For the sequence “CTAGCCAGACAACGAGGCGGATTCGCCGGCCGCCGCGTCGCGGAGTCACCTAGTGCAG”, the binding signal was 8920 fluorescence intensity (a.u.). To “CGGACGTCCCACACGCTTGGTGTCACGACGAGAGGAACCTCGGAGTCACCTAGTGCAG” belongs 3450 fluorescence intensity (a.u.); to “GCTGGAACTCGCCGGAGCTGGTCATCACGTACCGCGTCGGCGGAGTCACCTAGTGCAG”, 4030 fluorescence intensity (a.u.). To “GCGGCAACCACGCCCTCCCCTCCGCCAGATCCGGCGGGAGCGGAGTCACCTAGTGCAG” belongs 3840 fluorescence intensity (a.u.); to “CTCCAGATCATTTTGTGGGATTCATAGGTTTGGACCCTCACGGAGTCACCTAGTGCAG”, 3160 fluorescence intensity (a.u.); to “AGGGATAGATTGGCTTAGGGGCGGGTGGGTCTAGAGATTTCGGAGTCACCTAGTGCAG”, 3740 fluorescence intensity (a.u.). To “GTCTTTCTGGTCAGAATTGGCTGGAAACAATTGTTGTTAGCGGAGTCACCTAGTGCAG” belongs 3270 fluorescence intensity (a.u.).

For the sequence “TTTCGTGAGTCACCGCCGACCTCACCCGCGATTTGCCGCCCGGAGTCACCTAGTGCAG”, the binding signal is 9380 fluorescence intensity (a.u.).

With “AATTAAGATGCACAGATAAAATTAACCGTAATTTTATACCCGGAGTCACCTAGTGCAG”, the binding signal is 24300 fluorescence intensity (a.u.). Under “GGGTGCACACTGCACACGTGGAAACTGCACATAGAAGAATCGGAGTCACCTAGTGCAG” stands 3620 fluorescence intensity (a.u.). Under “GTCGGTACACCACGACAGTGCACGAATGGTGGGAAGCGACCGGAGTCACCTAGTGCAG” stands 27900 fluorescence intensity (a.u.); under “CGAGGCAGTGCTCCCTTCCCCTTCCTCCCTCCCCACTCCCCGGAGTCACCTAGTGCAG”, 28600 fluorescence intensity (a.u.). To “TACTCCTCTTTCCACTTGGCACTTGGCAGGTGACCTGGCGCGGAGTCACCTAGTGCAG” belongs 8250 fluorescence intensity (a.u.); to “ATGCCATGCCAACGCACTATGCCTGGTATCCTTAGCCATCCGGAGTCACCTAGTGCAG”, 4060 fluorescence intensity (a.u.); to “GGTTAAATGTCTCGGTGTCATCTAACCCTATGGGAGTATTCGGAGTCACCTAGTGCAG”, 3920 fluorescence intensity (a.u.). As to “TAGATGGATCATGGAGTGACGTGGATTATTTCATCCAGCTCGGAGTCACCTAGTGCAG”, the binding signal is 16300 fluorescence intensity (a.u.).

On to “ATAGTGATAGTACTAATGATTTTGCCACGCGTCGACCGCGCGGAGTCACCTAGTGCAG”, for which the binding signal is 8290 fluorescence intensity (a.u.). For “AATATAGTTGGGTTTTCACCAGACTCTGTTTTGGATATAGCGGAGTCACCTAGTGCAG”, the binding signal is 22600 fluorescence intensity (a.u.). Under “TGAGATGGAACACGTCAGTCGATGGATCAGACAGCGACGTCGGAGTCACCTAGTGCAG” stands 4480 fluorescence intensity (a.u.). With “TACAATTACAAATTCTTGAAATCTAAATGAAAATCTAGACCGGAGTCACCTAGTGCAG”, the binding signal is 3400 fluorescence intensity (a.u.). Regarding “TGAGGTTGGTGTTGACGCTGTTGTCGACGAAGCTGGATGTCGGAGTCACCTAGTGCAG”, the binding signal is 3620 fluorescence intensity (a.u.). Under “AATTGCCACGTAAGCGCCATGTCAGTGCCACGTCAAATTACGGAGTCACCTAGTGCAG” stands 33800 fluorescence intensity (a.u.); under “ATCAACCACCACGGTGTCATCCTCCTCCTCCATGGTGTGTCGGAGTCACCTAGTGCAG”, 4490 fluorescence intensity (a.u.); under “AAACCAAAAGGCCAGCGAAGCCAACGCGTCACCTCCTCTCCGGAGTCACCTAGTGCAG”, 7270 fluorescence intensity (a.u.).

As to “GTGACACGTCCCAACGGTAGCCACCTCGATCTGTGCCGCCCGGAGTCACCTAGTGCAG”, the binding signal is 5630 fluorescence intensity (a.u.). On to “CAACACCGCGCGCCACGACGCCCACTGCACCGGGTCAGCCCGGAGTCACCTAGTGCAG”, for which the binding signal is 4050 fluorescence intensity (a.u.). Under “CCTCCTCCGAGGCTACTCTCTGCAGGGCGCTCGCTTACGTCGGAGTCACCTAGTGCAG” stands 17000 fluorescence intensity (a.u.). To “TCAGGGAGTACTCGCTGCCGCGTGTCCCGGAGGGCCACTTCGGAGTCACCTAGTGCAG” belongs 4820 fluorescence intensity (a.u.).

As to “GGAAACAGTGTTGGGTACCGTACGTGCACGGCTACCAACACGGAGTCACCTAGTGCAG”, the binding signal is 3510 fluorescence intensity (a.u.). To “GCCGTTGTCGTCGCTGTCGTCGGAATAGCCTCCTTGGTGCCGGAGTCACCTAGTGCAG” belongs 3500 fluorescence intensity (a.u.); to “TTCTAGGTGAGTTATGAAATTAGTTCTTTCATTCGTGTCTCGGAGTCACCTAGTGCAG”, 3730 fluorescence intensity (a.u.).

On to “ATAAAATTGCCACATAAGCACCACGTCAATGCTATGTGGGCGGAGTCACCTAGTGCAG”, for which the binding signal was 29700 fluorescence intensity (a.u.). To “GTTTCGCAGGTGCACCGGACGTGTCCCGTGTATTTCCTGGCGGAGTCACCTAGTGCAG” belongs 4170 fluorescence intensity (a.u.).
